Data taken from PubChem BioAssay AID504467 (National Center for Advancing Translational Sciences (NCATS), 2011).
The campaign covered roughly 330,000 compounds. About 7,700 (2.3%) were called active. Inconclusive results, whose numbers are uncertain, are shown with a selection of clear calls. Calls follow the shape of the dose curve; as a rule, active = well fitted inhibition curve with a large enough effect; inconclusive = small, poorly fitted or top-dose-only effect, or effect the other way; inactive = flat fitted curve, though single readings scatter. Potencies beside an inconclusive call are fits to weak or partial responses and may not hold up.

experiment: qHTS screen for small molecules that inhibit ELG1-dependent DNA repair in human embryonic kidney (HEK293T) cells expressing luciferase-tagged ELG1; conditions: HEK293T ELG1-luciferase reporter, luminescence, 16 h, DNA damage induced by 5-fluorouridine; series mostly up to 46.1 µM; also: nearly all actives have a fitted effect of over 55% in size
Outline: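 Step one: seed 2,000 cells per well. Step two: pin-transfer compound or DMSO alongside 5-fluorouridine. Step three: incubate 16 hr, 37 °C, 5% CO2. Step four: add ONE-Glo, wait 30 min, read luminescence.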
Potency is read from the fitted curve at half-maximal effect.

SMILES | Potency
O=C(c1cc(-c2ccc(Cl)c(Cl)c2)on1)N1CCN(c2ccccc2)CC1 | inconclusive: 29.1 µM [activator, single point]
Cc1cccc(Nc2ccccc2C(=O)OCC(=O)N(C)C2CCS(=O)(=O)C2)c1C (configuration not stated) | inactive
Cc1cc(C(=O)CSc2nc(N)cc(N)n2)c(C)n1CC1CCCO1 (configuration not stated) | inactive
CCOc1ccc(-c2c(C#N)c(N)nc3c2c(=O)n(C)c(=O)n3C)cc1OC | inactive
CC1(C)Cc2c(C#N)c(SCCC#N)nc(N3CCOCC3)c2CS1 | inconclusive: 25.9 µM [inhibitor, single point]
COc1nc(C)cc(C)c1S(=O)(=O)c1ccccc1 | inactive
CCS(=O)(=O)N1CCCC(C(=O)NC2CCC(C)CC2)C1 (configuration not stated) | inconclusive: 16.4 µM [activator, partial curve]
CCC(N=c1cc(-c2ccc(OC)cc2)oc2ccc(C)cc12)C(=O)O (configuration not stated) | inconclusive: 1.3 µM [activator, full curve]
COC(=O)c1ccc(NC(=O)CSc2nnc(Cc3cccn3C)n2-c2ccc(F)cc2)cc1 | inconclusive: 25.9 µM [inhibitor, partial curve]
CCOC(=O)c1c(C)oc2c1c(CN1CCN(C(=O)OCC)CC1)c(O)c1ccccc12 | inconclusive: 23.1 µM [activator, single point]
CC1(C)CC(=O)C=C(N2CCN(C3=CC(=O)CC(C)(C)C3)CC2)C1 | inactive
COc1ccc2c(c1)SCC(=O)N2C | inconclusive: 25.9 µM [activator, single point]
COc1ccccc1-c1oc2ccccc2c1C#CC(C)(C)O | inconclusive: 0.0046 µM [inhibitor, full curve, poor fit]
O=C(Nc1ccc(S(=O)(=O)N2CCCCCC2)cc1)c1[nH]ncc1[N+](=O)[O-] | inconclusive: 23.1 µM [activator, single point]
Cc1ccc(-c2nc(C)sc2CC(=O)O)cc1 | inconclusive: 29.1 µM [activator, single point]
Cc1cccc(NC(=S)NCc2ccccc2Cl)c1C | inconclusive: 16.4 µM [inhibitor, single point]
Cc1ccc(NC(=O)[C@@H](CC(C)C)NC(=O)[C@@H]2Cc3ccccc3CN2)cc1 | inconclusive: 18.3 µM [activator, partial curve]
COc1cc(NC(=O)c2ccco2)c(OC)cc1NC(=O)CSc1ncc(-c2ccc(F)cc2)[nH]1 | inconclusive: 29.1 µM [inhibitor, single point]
O=C(c1cc(-c2ccccc2)nc2ccccc12)N1CCN(c2ccccn2)CC1 | inconclusive: 22.4 µM [inhibitor, single point]
Cc1ccc(CNC(=O)c2nn(C)c(C)c2[N+](=O)[O-])cc1 | inactive
N#C/C(=C\c1ccc(Sc2nc3ccccc3[nH]2)o1)c1ccccc1 | inconclusive: 20.6 µM [inhibitor, single point]

SMILES | Potency
CC1(C)Cc2c(C#N)c(N3CCN(C(=O)c4ccco4)CC3)nc(-c3ccco3)c2CS1 | inconclusive: 29.1 µM [inhibitor, single point]
COCC(C)N1C(=O)Cc2c1nc(N)c1c(N)nc(N3CCN(c4ccccc4F)CC3)c(C#N)c21 (configuration not stated) | active: 20.6 µM
Cc1ccc(NC(=O)COC(=O)C2(CC(=O)NC(C)(C)C)CCCC2)cc1C | inconclusive: 29.1 µM [inhibitor, single point]
COc1ccc2c(c1OC)C(=O)OC2N1C(=O)CC[C@H]1C(=O)Nc1ccc2c(c1)OCO2 (some centres not stated) | inconclusive: 1.83 µM [activator, partial curve, poor fit]
COC(=O)c1cccc(-n2c(C)cc(C=O)c2C)c1C | inconclusive: 14.6 µM [activator, partial curve]
COC(=O)NNC(=O)COc1cc(C)c(Br)cc1C(C)C | inconclusive: 18.4 µM [inhibitor, partial curve]
Cc1ccsc1/C=C/C(=O)O | inactive
COc1ccc(C(=O)/C=C2/C(=O)Nc3ccccc32)cc1 | inconclusive: 16.4 µM [activator, single point]
Cc1ccc[n+](CC(=O)c2ccc(-c3ccccc3)cc2)c1 | inconclusive: 8.2 µM [inhibitor, partial curve, poor fit]
Cc1sc2ncnc(OCC(=O)N3CCN(C(=O)c4ccco4)CC3)c2c1C | inactive
COc1ccccc1C(=O)NC(=S)Nc1cccnc1Cl | inconclusive: 1.64 µM [activator, full curve]
CCC(=O)Nc1sc2c(c1C(=O)N(C)C)CCCCC2 | inactive
COc1ccc(OCC(O)CNC(=O)Nc2ccc(C(C)(C)C)cc2)cc1 (configuration not stated) | inconclusive: 3.26 µM [inhibitor, partial curve, poor fit]
CCOc1cc(C(=O)N2CCC(CC3CC(c4cccc(Br)c4)=NO3)(C(=O)NCC3CCCCC3)CC2)cc(OCC)c1OCC (configuration not stated) | inconclusive: 4.61 µM [inhibitor, single point]
N#Cc1c(C(F)(F)F)cc(-c2ccccc2)nc1SCC(=O)Nc1sc2c(c1C#N)CCC2 | inactive
COc1cc2[nH]c(C(=O)NN)c(N)c2cc1OC | inconclusive: 8.2 µM [inhibitor, partial curve, poor fit]
O=C(Nc1c(C(=O)N2CCC(N3CCCCC3)CC2)oc2ccccc12)c1c(F)cccc1F | inconclusive: 9.2 µM [activator, partial curve, poor fit]
COc1ccccc1C(=O)OCC(=O)N1CCC(Cc2ccccc2)CC1 | inconclusive: 20.6 µM [activator, partial curve, poor fit]
CC(C)NC(=O)N(C)C[C@H]1Oc2ccc(NC(=O)C3CCCCC3)cc2C(=O)N([C@H](C)CO)C[C@@H]1C | inconclusive: 25.9 µM [activator, partial curve, poor fit]
Cc1ccc(OCC(=O)Nc2cc(S(=O)(=O)N3CCCCC3)ccc2N2CCN(C)CC2)c(C)c1 | inconclusive: 29.1 µM [inhibitor, single point]
Cc1ccc(OCCC(=O)OCC(=O)Nc2ccc(N3CCOCC3)cc2)cc1 | inactive

Exported with tabs: part of the list above
SMILES	Potency
CCC(=O)Nc1sc2c(c1C(=O)N(C)C)CCCCC2	inactive
COc1ccc(OCC(O)CNC(=O)Nc2ccc(C(C)(C)C)cc2)cc1 (configuration not stated)	inconclusive: 3.26 µM [inhibitor, partial curve, poor fit]
CCOc1cc(C(=O)N2CCC(CC3CC(c4cccc(Br)c4)=NO3)(C(=O)NCC3CCCCC3)CC2)cc(OCC)c1OCC (configuration not stated)	inconclusive: 4.61 µM [inhibitor, single point]
N#Cc1c(C(F)(F)F)cc(-c2ccccc2)nc1SCC(=O)Nc1sc2c(c1C#N)CCC2	inactive
COc1cc2[nH]c(C(=O)NN)c(N)c2cc1OC	inconclusive: 8.2 µM [inhibitor, partial curve, poor fit]
O=C(Nc1c(C(=O)N2CCC(N3CCCCC3)CC2)oc2ccccc12)c1c(F)cccc1F	inconclusive: 9.2 µM [activator, partial curve, poor fit]
COc1ccccc1C(=O)OCC(=O)N1CCC(Cc2ccccc2)CC1	inconclusive: 20.6 µM [activator, partial curve, poor fit]
CC(C)NC(=O)N(C)C[C@H]1Oc2ccc(NC(=O)C3CCCCC3)cc2C(=O)N([C@H](C)CO)C[C@@H]1C	inconclusive: 25.9 µM [activator, partial curve, poor fit]
Cc1ccc(OCC(=O)Nc2cc(S(=O)(=O)N3CCCCC3)ccc2N2CCN(C)CC2)c(C)c1	inconclusive: 29.1 µM [inhibitor, single point]
Cc1ccc(OCCC(=O)OCC(=O)Nc2ccc(N3CCOCC3)cc2)cc1	inactive
